Measured values reported in publication doi:10.1101/2024.02.23.581834.
These are yes or no findings as the source states them, for the method shown. In cells and extracts the contact can be indirect. Some binding calls cover weakened binding; strength is not graded here.

The chains behind the UniProt entries cited, without tags or fusion partners.
UniProt O95136: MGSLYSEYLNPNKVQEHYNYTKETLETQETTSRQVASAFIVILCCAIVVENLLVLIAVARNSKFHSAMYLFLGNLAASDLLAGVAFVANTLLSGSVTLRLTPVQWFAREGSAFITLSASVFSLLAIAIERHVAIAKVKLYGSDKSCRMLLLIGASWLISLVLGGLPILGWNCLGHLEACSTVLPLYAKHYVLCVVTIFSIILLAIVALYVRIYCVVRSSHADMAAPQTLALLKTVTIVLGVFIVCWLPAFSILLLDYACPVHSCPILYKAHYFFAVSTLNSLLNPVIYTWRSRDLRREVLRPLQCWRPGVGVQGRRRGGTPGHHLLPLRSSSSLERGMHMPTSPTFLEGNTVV
UniProt P32121: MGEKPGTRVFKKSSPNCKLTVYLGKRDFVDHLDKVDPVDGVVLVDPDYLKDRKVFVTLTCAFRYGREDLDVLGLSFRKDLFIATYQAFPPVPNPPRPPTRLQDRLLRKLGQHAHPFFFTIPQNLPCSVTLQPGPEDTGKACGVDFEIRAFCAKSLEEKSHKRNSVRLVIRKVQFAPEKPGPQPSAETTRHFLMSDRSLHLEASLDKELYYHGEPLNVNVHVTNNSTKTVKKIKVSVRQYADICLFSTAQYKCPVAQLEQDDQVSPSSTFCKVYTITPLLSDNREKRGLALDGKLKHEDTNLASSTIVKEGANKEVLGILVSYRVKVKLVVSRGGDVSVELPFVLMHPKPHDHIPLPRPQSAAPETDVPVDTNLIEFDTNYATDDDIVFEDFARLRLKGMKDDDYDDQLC

Target: C-terminally LgBiT-fused human sphingosine-1-phosphate receptor 2 (S1PR2-LgBiT) (human) (UniProt O95136)
Assay: split reporter

N-terminally SmBiT-fused human β-arrestin 2 (SmBiT-ARRB2) (from UniProt P32121 1-409)
binding: binds
